Measured values: PMC8983679

Biological target: YTH N6-methyladenosine RNA-binding protein 2 (Ythdf2) (rat (endogenous in H9c2))
Test: co-IP; endogenous proteins in H9c2 cell lysate; lysates incubated with specific antibodies and Protein A/G beads at 4 °C for 12 h, washed three times, western blot

binding: binds
B1: Carnitine palmitoyl transferase-1a (CPT-1a) (protein, UniProt P32198 1-773)
chain: MAEAHQAVAFQFTVTPDGIDLRLSHEALKQICLSGLHSWKKKFIRFKNGIITGVFPANPSSWLIVVVGVISSMHAKVDPSLGMIAKISRTLDTTGRMSSQTKNIVSGVLFGTGLWVAVIMTMRYSLKVLLSYHGWMFAEHGKMSRSTKIWMAMVKVLSGRKPMLYSFQTSLPRLPVPAVKDTVSRYLESVRPLMKEEDFQRMTALAQDFAVNLGPKLQWYLKLKSWWATNYVSDWWEEYIYLRGRGPLMVNSNYYAMEMLYITPTHIQAARAGNTIHAILLYRRTLDREELKPIRLLGSTIPLCSAQWERLFNTSRIPGEETDTIQHIKDSRHIVVYHRGRYFKVWLYHDGRLLRPRELEQQMQQILDDPSEPQPGEAKLAALTAADRVPWAKCRQTYFARGKNKQSLDAVEKAAFFVTLDESEQGYREEDPEASIDSYAKSLLHGRCFDRWFDKSITFVVFKNSKIGINAEHSWADAPVVGHLWEYVMATDVFQLGYSEDGHCKGDTNPNIPKPTRLQWDIPGECQEVIDASLSSASLLANDVDLHSFPFDSFGKGLIKKCRTSPDAFIQLALQLAHYKDMGKFCLTYEASMTRLFREGRTETVRSCTMESCNFVQAMMDPKSTAEQRLKLFKIACEKHQHLYRLAMTGAGIDRHLFCLYVVSKYLAVDSPFLKEVLSEPWRLSTSQTPQQQVELFDFEKNPDYVSCGGGFGPVADDGYGVSYIIVGENFIHFHISSKFSSPETDSHRFGKHLRQAMMDIITLFGLTINSKK

No constants are given. Whether binding was seen depends on the method and setting. Binding seen in cells or lysates may run through a third protein. Binding can be weak; no strength is given.
